# The list shows a part of the results. The main result of the screen is listed elsewhere. These columns were measured beside it and carry no call. The list favours compounds with an active or inconclusive main result. The note in brackets gives the kind of curve behind each potency; many fits are weak.
# Test: IkB Signaling
# Conditions: ABC-DLBCL IkBa-CBG/CBR dual luciferase ratio (green luciferase fused to IkBa over red control in OCI-Ly3 lymphoma cells), 4 h
# Method in brief: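 Luminescence ratio of IκBα-fused green versus native red beetle luciferase in OCI-Ly3 cells, 4 h post-doxycycline with compound; red signal alone, scaled from basal (0%) to zero light (-100%), flagged nonspecific or cytotoxic effects.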
# [1] = measured here: control luc red channel unless noted
# [2] = measured here: IkB-luc green channel
# [3] = measured here: control luc red channel
smiles,measurement,setting,value
CS(=O)(=O)N(CC(O)Cn1c2ccccc2c2ccccc21)c1ccccc1 (centres undefined),AC50,[1],"15.8 µM [falling, partial curve]"
CCOC(=O)c1sc(=S)n(CC)c1N,AC50,[1],"31.6 µM [rising, partial curve]"
CCSc1nc2c([nH]c3ccccc32)c(=O)n1CC,AC50,[1],"7.94 µM [rising, full curve, poor fit]"
O=C(NCc1ccccc1Cl)c1cc2c(s1)-c1ccc(Cl)cc1SC2,AC50,[1],"25.1 µM [falling, single point]"
CC(=O)N1CCc2c(sc(NC(=O)CSc3ccccc3)c2-c2nc3ccccc3s2)C1,AC50,[1],"39.8 µM [falling, single point]"
CCOC(=O)CCCSc1nc2sc(C)c(C)c2c(=O)[nH]1,AC50,[1],"0.158 µM [falling, full curve]"
O=C(COc1ccc(Br)cc1CO)Nc1ccc(F)cc1,AC50,[1],"20 µM [falling, single point]"
Cc1nc2ccc(S(=O)(=O)N(CC(=O)Nc3ccc(F)cc3F)Cc3ccccc3)cc2s1,AC50,[1],"20 µM [falling, partial curve]"
NC(=O)c1sc2nc(N3CCCCC3)c3c(c2c1N)CCCC3,AC50,[1],"7.94 µM [falling, partial curve]"
CCOc1ccc(NC(=O)c2ccc3[nH]c(C)c(C)c3c2)cc1,AC50,[1],"12.6 µM [falling, partial curve]"
O=S(=O)(NCCc1csc(-c2ccccc2)n1)c1ccc2c(c1)OCCO2,AC50,[1],"31.6 µM [falling, single point]"
Cc1ccc(S(=O)(=O)Nc2cccc(-c3cn4cccc(C)c4n3)c2)c(C)c1,AC50,[1],"20 µM [falling, partial curve]"
Cc1ccccc1NC(=O)Cn1cc(C(=O)c2cccs2)c2ccccc21,AC50,[1],"7.94 µM [falling, partial curve]"
CCc1ccc(NC(=O)CSC2=Nc3ccccc3C3=NC(CCC(=O)NCc4ccccc4)C(=O)N23)cc1 (centres undefined),AC50,[1],"39.8 µM [falling, single point]"
CCCCC(=O)OC1=C(C(=O)c2ccccc2)N(CCC)S(=O)(=O)c2ccccc21,AC50,[1],"10 µM [falling, partial curve]"
CC(NC(=O)CSc1n[nH]c(-c2ccccc2Cl)n1)c1nc2ccccc2[nH]1 (centres undefined),AC50,[1],"3.98 µM [falling, partial curve]"
CS(=O)(=O)Nc1cccc(-c2ccc3ncnc(NCCN4CCOCC4)c3c2)c1,AC50,[1],"3.16 µM [rising, partial curve]"
Cc1ccsc1CN1CCc2nc(Nc3ccccc3)ncc2C1,AC50,[1],"39.8 µM [falling, single point]"
O=C1CCCc2cc(S(=O)(=O)N3CCCC(C(=O)NCc4ccccc4)C3)ccc2N1 (centres undefined),AC50,[1],"0.00631 µM [falling, full curve, poor fit]"
CCOc1ccc(C(=O)Nc2cccc(-c3nc4cccnc4o3)c2)cc1Cl,AC50,[1],"6.31 µM [falling, full curve]"
COc1cccc(NC(=O)CCNS(=O)(=O)c2ccc3c(c2)oc(=O)n3C)c1,AC50,[1],"20 µM [falling, partial curve]"
Cc1cc(C)c2c(=O)n(CC(=O)NCCCN3CCN(c4ccccc4F)CC3)sc2n1,AC50,[2],"3.16 µM [falling, single point]"
same,AC50,[3],"25.1 µM [falling, single point]"
CCOc1ccc(NS(=O)(=O)c2cc3c(cc2Cl)NC(=O)CO3)cc1,AC50,[1],"20 µM [falling, partial curve, poor fit]"
Cc1cc(C)c(NC(=O)CCS(=O)(=O)c2cc3c(cc2Cl)NC(=O)CO3)c(C)c1,AC50,[1],"39.8 µM [falling, single point]"
O=C(CSCn1nnc2c(=O)[nH]c(Cc3ccc(F)cc3)nc21)Nc1cccc(C(F)(F)F)c1,AC50,[1],"31.6 µM [falling, single point]"
COc1cc2c(cc1OC)C(COc1cccc(C(F)(F)F)c1)N(C(=O)c1ccc(S(=O)(=O)N3CCCC3)cc1)CC2 (centres undefined),AC50,[1],"39.8 µM [falling, single point]"
O=C(Nc1ccc2c(c1)oc1ccccc12)c1ccc(Br)o1,AC50,[1],"10 µM [falling, partial curve]"
Cc1ccc(CCNC(=O)CS(=O)Cc2nc(-c3ccccc3Cl)oc2C)cc1 (centres undefined),AC50,[1],"31.6 µM [falling, single point]"
COc1ccc(CNC(=O)C(c2cccs2)N(C(=O)c2csnn2)C2CC2)cc1 (centres undefined),AC50,[2],"6.31 µM [rising, single point]"
same,AC50,[3],"15.8 µM [falling, partial curve]"
Cc1ccc2oc(C(=O)Nc3cccc(Cl)c3)cc(=O)c2c1,AC50,[1],"0.631 µM [rising, full curve]"
COc1ccccc1C(=O)Nc1ccccc1OCc1cc(=O)n2ccccc2n1,AC50,[1],"3.98 µM [falling, partial curve]"
COc1ccc(CNc2nc3c(-c4ccccc4)nnn3c3ccccc23)cc1,AC50,[1],"0.631 µM [falling, full curve]"
CCNc1nc(NCc2ccc(F)cc2)c2cnn(C)c2n1,AC50,[1],"15.8 µM [falling, single point]"
O=S(=O)(NCCS(=O)(=O)N1CCN(c2ccccc2)CC1)c1ccc(Br)cc1,AC50,[1],"1.58 µM [falling, full curve, poor fit]"
CN(C)c1ccc(NC(=O)CN2C(=O)c3ccccc3Sc3ccc(C(=O)N4CCCC4)cc32)cc1,AC50,[1],"1 µM [rising, full curve]"
CCOC(=O)C1CCN(C(=O)Cn2ncc3c4ccccc4n(Cc4ccccc4F)c3c2=O)CC1,AC50,[1],"25.1 µM [falling, single point]"
CCN(C(=O)c1cccn(Cc2ccccc2C)c1=O)c1ccccc1,AC50,[1],"7.94 µM [falling, single point]"
Cc1ccc(NC(=O)CN2C(=O)CCn3nc(-c4cccn4C)cc32)c(Cl)c1,AC50,[1],"0.0316 µM [rising, full curve, poor fit]"
CCc1nc(OCc2ccco2)c2sc3nc4c(cc3c2n1)COC(C)(C)C4,AC50,[1],"12.6 µM [falling, partial curve]"
COc1ccc(N2CCN(CC(=O)Nc3c(C)cc(C)cc3C)CC2)cc1,AC50,[1],"25.1 µM [falling, partial curve]"
Cc1ccc(F)cc1NC(=O)c1ccc(Cn2nc(N3CCN(c4ccccc4)CC3)ccc2=O)o1,AC50,[1],"39.8 µM [falling, single point]"
COc1ccccc1S(=O)(=O)Cc1ccc(C(=O)N2CCN(c3cccc(Cl)c3)CC2)o1,AC50,[1],"7.94 µM [falling, partial curve]"
Cc1cccc(NC(=O)C2CCN(S(=O)(=O)c3cccc4cccnc34)CC2)n1,AC50,[1],"15.8 µM [falling, partial curve]"
COC(=O)c1cnn(-c2ccc(C(=O)Nc3ccc(OC(F)(F)F)cc3)cc2)c1N,AC50,[1],"39.8 µM [falling, single point]"
OC[C@@H]1O[C@@H](n2cnc3cncnc32)[C@@H](O)[C@H]1O,AC50,[1],"31.6 µM [falling, partial curve, poor fit] [measured here: IkB-luc green channel]"
CC(NC(=O)c1c2c(nc3ccccc13)C(=O)N(C1CCCCC1)C2)c1ccccc1 (centres undefined),AC50,[1],"10 µM [falling, partial curve]"
CN(C)S(=O)(=O)c1ccc2c(c1)N(CC(=O)N1CCN(c3cccc(Cl)c3)CC1)CCS2,AC50,[1],"2 µM [falling, full curve]"
COc1cc(NC(=O)Nc2nnc(N3CCCCCC3)s2)cc(OC)c1,AC50,[1],"25.1 µM [falling, single point]"
CC1CCCN(Cc2c(O)ccc3c(=O)c(Oc4ccc(C(C)(C)C)cc4)c(C(F)(F)F)oc23)C1 (centres undefined),AC50,[1],"12.6 µM [falling, partial curve]"
COc1cc(NC(=O)Cn2ncc3c2-c2ccccc2OC3)cc(OC)c1OC,AC50,[1],"20 µM [falling, partial curve]"
Nc1cccc2c(N)cccc12,AC50,[1],"31.6 µM [rising, partial curve] [measured here: IkB-luc green channel]"
O=C(Cn1cc(SCc2ccccc2)c2ccccc21)N1CCCCCC1,AC50,[1],"15.8 µM [falling, partial curve]"
COc1cccc(CNc2ccc(N3CCCCC3)cc2)c1OC,AC50,[1],"12.6 µM [falling, partial curve]"
Cc1nnc(SCCC(=O)Nc2nc(-c3ccccc3)ns2)s1,AC50,[1],"31.6 µM [falling, single point]"
Cc1ccc(N2CCN(c3c(CN4CCCC4)c(=O)oc4ccccc34)CC2)c(C)c1,AC50,[1],"3.98 µM [falling, partial curve]"
COCCCNC(=O)c1c(NC(=O)c2cc(=O)c3ccccc3o2)sc2c1CCCC2,AC50,[1],"1.58 µM [falling, full curve]"
Cc1ccc2nc(-c3ccc(Cl)c(NC(=O)c4cccc([N+](=O)[O-])c4C)c3)oc2c1,AC50,[1],"0.794 µM [falling, partial curve]"
CCOC(=O)c1noc2ncnc(N3CCN(c4cccc(Cl)c4)CC3)c12,AC50,[1],"12.6 µM [falling, partial curve]"
COC(=O)c1cccc(S(=O)(=O)N2CCC(NC(=O)NC34CC5CC(CC(C5)C3)C4)CC2)c1,AC50,[1],"39.8 µM [falling, single point]"
COc1ccc(-c2nc3nc(C)cc(N4CCN(c5cccc(C(F)(F)F)c5)CC4)n3n2)cc1,AC50,[1],"0.316 µM [falling, partial curve]"
COc1ccc(CCNC(=O)c2cc3c(s2)-c2c(C)cccc2OC3)c(OC)c1,AC50,[1],"0.158 µM [falling, full curve]"
Cc1cccc2c1-c1sc(C(=O)NCc3ccc(Cl)cc3)cc1CO2,AC50,[1],"15.8 µM [falling, partial curve]"

# Reference: PubChem BioAssay AID445 (National Center for Advancing Translational Sciences (NCATS), 2006)
